Test results: the supplement of paper PMC12819154, “High-throughput peptide-centric local stability assay extends protein–ligand identification to membrane proteins, tissues and bacteria” (Nature Structural & Molecular Biology, 2025)
Some of the results follow. Small differences around the control level are noise.

Amino acid sequences for entries named in this document (tags omitted). A change or cut given only in a name is not applied to a line headed by its entry.
UniProt O43766: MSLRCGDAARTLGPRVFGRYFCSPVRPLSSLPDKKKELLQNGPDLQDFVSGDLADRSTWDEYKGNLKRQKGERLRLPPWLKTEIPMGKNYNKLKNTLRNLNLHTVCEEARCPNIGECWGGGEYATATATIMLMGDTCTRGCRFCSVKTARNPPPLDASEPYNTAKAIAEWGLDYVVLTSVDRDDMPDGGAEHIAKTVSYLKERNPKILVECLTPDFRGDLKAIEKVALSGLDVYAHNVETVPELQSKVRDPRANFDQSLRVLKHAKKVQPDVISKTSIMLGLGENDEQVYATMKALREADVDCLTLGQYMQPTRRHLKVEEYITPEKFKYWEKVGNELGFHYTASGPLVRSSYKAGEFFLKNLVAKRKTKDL
UniProt O60645: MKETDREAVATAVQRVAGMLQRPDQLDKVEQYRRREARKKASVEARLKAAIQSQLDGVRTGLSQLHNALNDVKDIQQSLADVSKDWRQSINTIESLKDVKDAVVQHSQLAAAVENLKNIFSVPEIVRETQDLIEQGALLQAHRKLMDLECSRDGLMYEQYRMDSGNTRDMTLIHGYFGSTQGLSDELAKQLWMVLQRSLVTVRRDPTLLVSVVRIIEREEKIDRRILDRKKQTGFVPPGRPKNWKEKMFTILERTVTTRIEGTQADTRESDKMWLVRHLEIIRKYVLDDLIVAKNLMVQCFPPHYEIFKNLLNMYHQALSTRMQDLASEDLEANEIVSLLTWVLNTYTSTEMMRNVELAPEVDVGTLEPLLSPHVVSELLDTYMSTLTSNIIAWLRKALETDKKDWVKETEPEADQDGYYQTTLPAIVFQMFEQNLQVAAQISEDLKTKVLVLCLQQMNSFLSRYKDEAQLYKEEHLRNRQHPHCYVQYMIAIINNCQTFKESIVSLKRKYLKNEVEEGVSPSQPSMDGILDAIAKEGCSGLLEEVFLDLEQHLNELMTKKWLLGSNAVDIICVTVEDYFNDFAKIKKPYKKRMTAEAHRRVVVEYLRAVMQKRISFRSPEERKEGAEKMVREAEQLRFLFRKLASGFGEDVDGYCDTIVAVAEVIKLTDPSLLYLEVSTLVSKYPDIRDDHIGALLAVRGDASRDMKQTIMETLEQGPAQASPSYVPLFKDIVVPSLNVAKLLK
UniProt O43399: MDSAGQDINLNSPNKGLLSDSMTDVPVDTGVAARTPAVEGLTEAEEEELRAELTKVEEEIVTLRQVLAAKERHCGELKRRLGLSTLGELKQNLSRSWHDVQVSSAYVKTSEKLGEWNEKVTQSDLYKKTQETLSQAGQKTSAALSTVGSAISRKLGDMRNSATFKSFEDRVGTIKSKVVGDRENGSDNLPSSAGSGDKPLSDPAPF
UniProt O43236: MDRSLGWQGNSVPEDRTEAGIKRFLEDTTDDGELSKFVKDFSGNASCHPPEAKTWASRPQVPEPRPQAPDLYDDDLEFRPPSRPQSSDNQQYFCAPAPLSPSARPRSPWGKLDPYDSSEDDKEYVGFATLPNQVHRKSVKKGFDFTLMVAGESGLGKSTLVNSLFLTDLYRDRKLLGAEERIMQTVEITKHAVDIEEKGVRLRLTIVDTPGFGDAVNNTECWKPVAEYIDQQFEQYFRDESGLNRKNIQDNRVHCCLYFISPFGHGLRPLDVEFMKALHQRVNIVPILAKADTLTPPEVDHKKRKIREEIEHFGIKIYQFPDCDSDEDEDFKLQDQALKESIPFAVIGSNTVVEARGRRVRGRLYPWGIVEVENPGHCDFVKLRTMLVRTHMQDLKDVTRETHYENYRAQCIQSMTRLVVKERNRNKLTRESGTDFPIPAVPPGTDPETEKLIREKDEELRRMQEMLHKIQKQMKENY
UniProt O75131: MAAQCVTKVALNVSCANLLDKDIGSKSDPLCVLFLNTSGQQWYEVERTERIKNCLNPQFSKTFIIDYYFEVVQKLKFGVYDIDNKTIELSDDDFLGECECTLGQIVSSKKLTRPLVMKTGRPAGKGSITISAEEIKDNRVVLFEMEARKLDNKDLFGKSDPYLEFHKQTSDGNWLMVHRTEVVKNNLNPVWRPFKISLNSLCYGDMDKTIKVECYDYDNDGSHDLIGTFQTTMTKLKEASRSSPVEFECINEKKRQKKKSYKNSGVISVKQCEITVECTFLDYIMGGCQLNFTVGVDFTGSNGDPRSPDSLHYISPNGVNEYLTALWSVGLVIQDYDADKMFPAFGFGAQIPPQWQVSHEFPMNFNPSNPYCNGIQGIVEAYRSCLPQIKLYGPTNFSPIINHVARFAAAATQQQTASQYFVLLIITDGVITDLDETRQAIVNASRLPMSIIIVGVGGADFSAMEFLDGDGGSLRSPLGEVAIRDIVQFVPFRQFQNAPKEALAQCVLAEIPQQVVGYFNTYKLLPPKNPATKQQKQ
UniProt O43805: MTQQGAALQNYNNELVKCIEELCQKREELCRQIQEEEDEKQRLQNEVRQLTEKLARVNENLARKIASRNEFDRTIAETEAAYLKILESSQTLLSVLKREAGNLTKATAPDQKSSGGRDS
UniProt O15533, whole entry: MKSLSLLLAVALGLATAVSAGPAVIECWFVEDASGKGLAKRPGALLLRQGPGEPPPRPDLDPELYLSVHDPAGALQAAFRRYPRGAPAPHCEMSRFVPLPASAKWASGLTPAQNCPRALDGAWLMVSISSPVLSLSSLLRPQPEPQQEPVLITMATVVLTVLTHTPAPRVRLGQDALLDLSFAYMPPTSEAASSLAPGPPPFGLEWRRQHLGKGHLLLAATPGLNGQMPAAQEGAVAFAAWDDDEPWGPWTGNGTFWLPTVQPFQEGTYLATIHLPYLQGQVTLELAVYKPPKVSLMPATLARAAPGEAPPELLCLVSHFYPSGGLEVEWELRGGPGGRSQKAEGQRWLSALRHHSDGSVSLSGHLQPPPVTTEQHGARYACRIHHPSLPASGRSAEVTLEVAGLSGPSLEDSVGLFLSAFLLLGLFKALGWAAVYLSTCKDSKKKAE
UniProt O60282: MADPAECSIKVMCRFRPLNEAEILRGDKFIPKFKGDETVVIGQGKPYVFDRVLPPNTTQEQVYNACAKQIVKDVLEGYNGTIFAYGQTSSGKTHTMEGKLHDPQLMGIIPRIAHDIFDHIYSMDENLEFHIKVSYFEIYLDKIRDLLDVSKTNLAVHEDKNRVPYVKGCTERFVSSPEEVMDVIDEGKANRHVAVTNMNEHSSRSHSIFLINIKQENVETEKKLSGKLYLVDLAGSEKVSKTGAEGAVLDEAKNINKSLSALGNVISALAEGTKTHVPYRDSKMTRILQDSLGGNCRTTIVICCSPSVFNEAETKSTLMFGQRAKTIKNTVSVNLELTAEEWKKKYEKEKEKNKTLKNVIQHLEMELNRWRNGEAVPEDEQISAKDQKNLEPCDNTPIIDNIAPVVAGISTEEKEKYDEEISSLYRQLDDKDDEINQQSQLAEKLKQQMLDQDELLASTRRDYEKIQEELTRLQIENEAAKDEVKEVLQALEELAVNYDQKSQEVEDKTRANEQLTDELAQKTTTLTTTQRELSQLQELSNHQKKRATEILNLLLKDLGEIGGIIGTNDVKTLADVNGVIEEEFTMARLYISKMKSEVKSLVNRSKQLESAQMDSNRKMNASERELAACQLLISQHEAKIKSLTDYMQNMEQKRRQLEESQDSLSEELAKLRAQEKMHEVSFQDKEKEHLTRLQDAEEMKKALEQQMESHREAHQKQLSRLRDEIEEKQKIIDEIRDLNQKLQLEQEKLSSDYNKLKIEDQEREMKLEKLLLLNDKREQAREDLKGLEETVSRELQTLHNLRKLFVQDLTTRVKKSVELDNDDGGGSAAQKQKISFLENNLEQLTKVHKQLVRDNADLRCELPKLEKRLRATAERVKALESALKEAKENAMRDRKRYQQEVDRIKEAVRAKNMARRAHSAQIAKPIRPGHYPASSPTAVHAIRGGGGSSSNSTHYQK
UniProt O60524: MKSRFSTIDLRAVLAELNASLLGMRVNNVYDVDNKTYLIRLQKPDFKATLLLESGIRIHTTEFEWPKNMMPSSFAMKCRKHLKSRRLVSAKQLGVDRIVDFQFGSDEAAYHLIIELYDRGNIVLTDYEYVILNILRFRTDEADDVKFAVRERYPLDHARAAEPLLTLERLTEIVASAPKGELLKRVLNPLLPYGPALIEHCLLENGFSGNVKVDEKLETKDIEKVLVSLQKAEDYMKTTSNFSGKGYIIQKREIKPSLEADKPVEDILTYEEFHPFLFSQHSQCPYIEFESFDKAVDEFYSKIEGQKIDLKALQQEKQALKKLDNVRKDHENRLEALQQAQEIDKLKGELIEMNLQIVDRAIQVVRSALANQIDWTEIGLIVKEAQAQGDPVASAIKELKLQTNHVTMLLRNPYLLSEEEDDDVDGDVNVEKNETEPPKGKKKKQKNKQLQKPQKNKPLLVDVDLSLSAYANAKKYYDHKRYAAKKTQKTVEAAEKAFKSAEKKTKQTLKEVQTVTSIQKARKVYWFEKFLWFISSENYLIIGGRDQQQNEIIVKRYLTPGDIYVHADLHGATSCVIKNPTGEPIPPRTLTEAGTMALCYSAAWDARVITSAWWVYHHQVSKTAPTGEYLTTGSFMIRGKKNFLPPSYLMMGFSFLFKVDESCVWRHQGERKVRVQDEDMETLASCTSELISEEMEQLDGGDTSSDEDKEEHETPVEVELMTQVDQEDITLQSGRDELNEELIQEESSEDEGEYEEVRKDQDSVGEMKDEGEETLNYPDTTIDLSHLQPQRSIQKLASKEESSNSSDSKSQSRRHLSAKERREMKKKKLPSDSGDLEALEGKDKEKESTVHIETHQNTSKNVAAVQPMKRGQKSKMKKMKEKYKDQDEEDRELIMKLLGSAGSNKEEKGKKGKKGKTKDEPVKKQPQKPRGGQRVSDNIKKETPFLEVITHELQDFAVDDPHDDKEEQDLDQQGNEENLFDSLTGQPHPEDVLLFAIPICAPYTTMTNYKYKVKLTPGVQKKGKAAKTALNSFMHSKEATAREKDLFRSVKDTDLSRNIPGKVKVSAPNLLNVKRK
UniProt O43426, whole entry: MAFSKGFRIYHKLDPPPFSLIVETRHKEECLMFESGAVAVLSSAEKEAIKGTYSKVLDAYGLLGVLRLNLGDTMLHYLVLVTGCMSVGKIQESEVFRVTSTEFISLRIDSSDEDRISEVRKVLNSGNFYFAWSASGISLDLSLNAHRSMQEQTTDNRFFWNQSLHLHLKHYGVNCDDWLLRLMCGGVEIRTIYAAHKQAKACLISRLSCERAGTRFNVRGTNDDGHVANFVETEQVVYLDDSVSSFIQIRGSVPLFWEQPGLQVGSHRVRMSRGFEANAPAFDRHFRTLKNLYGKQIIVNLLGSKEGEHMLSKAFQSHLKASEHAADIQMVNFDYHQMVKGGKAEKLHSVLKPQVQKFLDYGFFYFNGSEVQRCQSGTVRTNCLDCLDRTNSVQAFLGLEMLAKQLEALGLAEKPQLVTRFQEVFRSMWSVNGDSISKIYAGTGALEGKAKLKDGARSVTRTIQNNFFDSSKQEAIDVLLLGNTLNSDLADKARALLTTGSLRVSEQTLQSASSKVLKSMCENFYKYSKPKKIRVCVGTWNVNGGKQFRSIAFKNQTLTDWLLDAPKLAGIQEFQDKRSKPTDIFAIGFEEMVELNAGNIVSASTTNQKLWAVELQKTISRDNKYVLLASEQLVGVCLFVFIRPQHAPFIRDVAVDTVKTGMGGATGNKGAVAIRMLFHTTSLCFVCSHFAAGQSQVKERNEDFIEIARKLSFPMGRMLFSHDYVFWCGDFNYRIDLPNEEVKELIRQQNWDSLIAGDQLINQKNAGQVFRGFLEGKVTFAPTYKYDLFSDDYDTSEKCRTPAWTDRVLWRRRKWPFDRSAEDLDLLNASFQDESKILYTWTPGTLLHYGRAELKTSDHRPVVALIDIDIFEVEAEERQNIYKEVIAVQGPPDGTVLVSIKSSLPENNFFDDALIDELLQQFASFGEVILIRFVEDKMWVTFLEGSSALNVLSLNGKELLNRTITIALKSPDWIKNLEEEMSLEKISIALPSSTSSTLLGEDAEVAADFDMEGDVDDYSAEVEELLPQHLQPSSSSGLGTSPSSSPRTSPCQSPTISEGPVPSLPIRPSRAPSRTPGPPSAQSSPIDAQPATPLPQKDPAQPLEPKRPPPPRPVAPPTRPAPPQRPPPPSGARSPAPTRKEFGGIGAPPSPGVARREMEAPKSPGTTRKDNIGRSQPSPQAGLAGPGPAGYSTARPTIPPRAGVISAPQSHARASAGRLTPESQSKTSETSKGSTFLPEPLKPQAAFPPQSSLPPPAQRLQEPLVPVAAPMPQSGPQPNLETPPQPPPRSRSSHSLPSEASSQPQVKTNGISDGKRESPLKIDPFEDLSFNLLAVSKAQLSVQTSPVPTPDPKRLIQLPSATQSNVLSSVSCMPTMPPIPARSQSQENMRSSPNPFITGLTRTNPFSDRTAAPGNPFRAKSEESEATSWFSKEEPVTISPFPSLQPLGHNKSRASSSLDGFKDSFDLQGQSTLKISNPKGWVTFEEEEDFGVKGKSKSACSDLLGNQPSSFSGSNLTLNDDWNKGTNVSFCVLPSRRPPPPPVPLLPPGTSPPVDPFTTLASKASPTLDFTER

The targets below were run with CN[C@@H]1C[C@H]2O[C@@](C)([C@@H]1OC)n1c3ccccc3c3c4c(c5c6ccccc6n2c5c31)C(=O)NC4 [staurosporine] (assay: log2 fold change of tryptic peptide abundance, ligand vs vehicle (limited proteolysis) (log2 ratio); higher = more trypsin-susceptible (destabilized)). Settings: ligand concentration: 20 uM; sample: K562 cleared lysate; digestion: 4 min, 22 C (HT-PELSA RT4min, Orbitrap Astral).

Row | Target | log2 fold change
1 | CEP104 (peptide sequence: EIQAEVQEKESDAVKPK, peptide start residue: 711) (UniProt O60308) | -0.635
2 | EEF1E1 (peptide sequence: VTQVDGHSSK, peptide start residue: 79) (UniProt O43324) | 0.381
3 | NMT2 (peptide sequence: AMELLSACQGPAR, peptide start residue: 97) (UniProt O60551) | 0.282
4 | LIAS (peptide sequence: KVQPDVISK, peptide start residue: 267) (UniProt O43766) | -0.352
5 | MAFG (peptide sequence: GPLAAGLGPLVPGK, peptide start residue: 131) (UniProt O15525) | -0.439
6 | OIP5 (peptide sequence: AIVNASEMDIQNVPLSEK, peptide start residue: 178) (UniProt O43482) | -0.179
7 | CFAP410 (peptide sequence: VLWLAENPCCGTSPHR, peptide start residue: 91) (UniProt O43822) | -0.53
8 | UniProt O43187 (peptide sequence: ETACSSPGSIER, peptide start residue: 241) | 0.542
9 | CLASP2 (peptide sequence: VLVNSASAQK, peptide start residue: 483) (UniProt O75122) | -0.136
10 | SART1 (peptide sequence: MAIDDKYSR, peptide start residue: 679) (UniProt O43290) | 0.323
11 | UniProt O43361 (peptide sequence: VLQVTIPKPALSTLK, peptide start residue: 68) | 0.776
12 | HNRNPR (peptide sequence: DYAFVHFEDR, peptide start residue: 375) (UniProt O43390) | -0.119
13 | EXOC3 (peptide sequence: YKDEAQLYKEEHLR, peptide start residue: 465) (UniProt O60645) | 0.347
14 | OGG1 (peptide sequence: DYSWHPTTSQAK, peptide start residue: 278) (UniProt O15527) | -0.265
15 | TPD52L2 (peptide sequence: AELTKVEEEIVTLR, peptide start residue: 51) (UniProt O43399) | 1.24
16 | SEPTIN4 (peptide sequence: VNIVPILAK, peptide start residue: 282) (UniProt O43236) | -0.193
17 | UniProt O43865 (peptide sequence: EIEDAEKYSFMATVTK, peptide start residue: 21) | -0.15
18 | CPNE3 (peptide sequence: SYKNSGVISVK, peptide start residue: 260) (UniProt O75131) | 1.13
19 | SSNA1 (peptide sequence: CIEELCQK, peptide start residue: 18) (UniProt O43805) | -0.106
20 | TAPBP (peptide sequence: VSLMPATLAR, peptide start residue: 294) (UniProt O15533) | -0.028
21 | PEX1 (peptide sequence: LAHALNDMIK, peptide start residue: 688) (UniProt O43933) | 0.685
22 | MED7 (peptide sequence: VMMEVQKR, peptide start residue: 137) (UniProt O43513) | 0.362
23 | POLR2D (peptide sequence: FEDEELQQILDDIQTK, peptide start residue: 122) (UniProt O15514) | -0.307
24 | TOM1 (peptide sequence: LRSELEMVSGNVR, peptide start residue: 220) (UniProt O60784) | 0.259
25 | UniProt O60282 (peptide sequence: CELPKLEK, peptide start residue: 858) | 0.162
26 | UniProt O75164 (peptide sequence: FYQCEVVR, peptide start residue: 914) | 0.347
27 | MSH5 (peptide sequence: ASHASHTAAQAGLPDKLVAR, peptide start residue: 751) (UniProt O43196) | -0.357
28 | UniProt O60524 (peptide sequence: NVAAVQPMKR, peptide start residue: 861) | 0.286
29 | SYNJ1 (peptide sequence: ALLTTGSLR, peptide start residue: 495) (UniProt O43426) | -0.228

Shown as a markdown table: entries from further up.

| Row | Target | log2 fold change |
| --- | --- | --- |
| 15 | TPD52L2 (peptide sequence: AELTKVEEEIVTLR, peptide start residue: 51) (UniProt O43399) | 1.24 |
| 16 | SEPTIN4 (peptide sequence: VNIVPILAK, peptide start residue: 282) (UniProt O43236) | -0.193 |
| 17 | UniProt O43865 (peptide sequence: EIEDAEKYSFMATVTK, peptide start residue: 21) | -0.15 |
| 18 | CPNE3 (peptide sequence: SYKNSGVISVK, peptide start residue: 260) (UniProt O75131) | 1.13 |
| 19 | SSNA1 (peptide sequence: CIEELCQK, peptide start residue: 18) (UniProt O43805) | -0.106 |
